# Measurements taken from patent EP4825388A1, “USE OF CYCLO(HIS-PRO) (CHP) FOR ENHANCING EXERCISE PERFORMANCE, IMPROVING MUSCLE FUNCTION, OR PREVENTING, ALLEVIATING, OR TREATING MUSCLE DISEASES” (dated 2026).
# The structures given here were assigned with low confidence; some may be wrong.
# Tests used:
# citrate synthase = assay: Citrate synthase activity in TA muscle of aged mice; details: 35 mg/kg orally once/day; corrected for total protein concentration
# aged animal model [1] = assay: Grip strength test in aged mice; details: 35 mg/kg orally once/day; grip strength of forepaws and hind paws corrected for body weight
# GM tissues = assay: Muscle fiber cross-sectional area, H&E staining of GM tissue; details: 35 mg/kg orally once/day
# [2] = test system: flexor digitorum brevis (FDB) muscles; assay: SR Ca^2+ release/uptake (Fluo-4/AM) in FDB fibers isolated from CHP-treated mdx mice; details: prevention protocol; 2.5 mM caffeine stimulation
# aged animal model [3] = assay: Survival rate of aged mice during the experimental period; details: 18-month-old mice, 35 mg/kg orally once/day for 4 months
# [4] = test system: C57BL/10ScSn-Dmdmdx (mdx) mice; assay: Hanging test in mdx (DMD) mouse model; details: treatment protocol, 35 mg/kg, test at week 15; vs water-treated mdx
# [5] = test system: extensor digitorum longus (EDL) and soleus muscles; assay: Ex vivo muscle force production of muscles isolated from CHP-treated mdx mice; details: prevention protocol, CHP for 17 weeks
# [6] = test system: gastrocnemius (GM), tibialis anterior (TA) and cardiac muscle tissues; assay: Measurement of muscle weight in aged mice; details: 35 mg/kg orally once/day; tissues isolated after euthanasia
# aged animal model [7] = assay: Evaluation of sensorimotor function (Rota-rod test) in aged mice; details: 35 mg/kg orally once/day; Rota-rod 4 to 40 rpm; statistical significance on day 3
# aged animal model [8] = assay: Four limb-wire hanging test in aged mice; details: 35 mg/kg orally once/day; longest hanging time of two measurements
# [9] = test system: C57BL/10ScSn-Dmdmdx (mdx) mice; assay: Grip strength test in mdx (DMD) mouse model; details: vs water-treated mdx
# [10] = GM and TA muscles, corrected by β-actin
# [11] = compared to the vehicle-treated control group
smiles,measurement,setting,value
O=C1N[C@@H](Cc2c[nH]cn2)C(=O)N2CCC[C@@H]12,"expressions of genes related to mitochondrial biogenesis and function (Err-α, Cox-4, Drp-1, Tf1bm and Tf2bm)",GM and TA muscles; [10],significantly increased
same,sirt-1 expression,GM and TA muscles; [10],increase equally in GM and TA muscles
same,expression of genes related to aging and muscle atrophy,"GM and TA muscles; compared to the control group, corrected by β-actin",maintained to be lower
same,"gene expression levels of Myostatin, Atrogin-1, Foxo-1 and Dystrophin in skeletal muscle",GM and TA muscles; [11],significant decrease
same,"gene expression levels of PGC-1α, Nrf-2, Sirt-1, Sirt-3, Drp-1, Err-α, Cox-4, Tf1bm and Tf2bm in skeletal muscle",GM and TA muscles; [11],significantly increased
same,expression of the nrf-2 gene,GM and TA muscles; corrected by β-actin,high
same,"citrate synthase activity of TA muscle, increase compared to the control group",citrate synthase,about 12%
same,"maximum muscle strength, increase compared to the control group",aged animal model [1],about 23.6%
same,"average cross-sectional area of muscle fibers, increase compared to the control group",GM tissues,about 22%
same,distribution of muscle fibers over a wide area,GM tissues,increased
same,Ca^2+ uptake via store-operated calcium channels (SOCs) after SR depletion,[2],normalized
same,response to caffeine-induced Ca^2+ release in the SR,[2],restored
same,survival rate,aged animal model [3],100%
same,average hanging time,[4],significantly increased
same,maximal contractile force,[5]; EDL and soleus muscles,partial recovery
same,performance of EDL and soleus muscles,"[5]; concentric contractions, force-frequency relationship",improved
same,expressions of atrogin-1 and murf-1 genes,cardiac muscle,significantly reduced
same,weight of the TA muscle,[6],significantly increased
same,sensorimotor function,aged animal model [7],improved sensorimotor function compared to the control group
same,"hanging time, increase compared to the control group",aged animal model [8],about 1.9 times
same,grip strength,"[9]; prevention protocol, 20 mg/kg oral gavage three times a week from 3 weeks of age, test at week 10",significant increase
same,grip strength,"[9]; treatment protocol, 35 mg/kg oral gavage three times a week from 7 weeks of age, test at week 16",significant increase
